Data as given in PubChem BioAssay AID493246 (Drosophila RNAi Screening Center, 2011)
The deposit covers about 21,000 reagents; this is a random part of those with a known target gene and a result. Over the whole deposit, 429 (2%) were called active. 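Values are raw and not normalised between plates; calls rest on per-plate z-scores that were not deposited.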 A number with no mark means an inactive call. Names joined by + are all predicted targets of the reagent. Not given: the amount of reagent, the time to read-out.

Screen: 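Identify essential fly genes by loss of cell viability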 (primary screen)
Cells: Drosophila Kc and S2R+ cells
Knock-down reagent: long dsRNA against Drosophila genes
Measurement: 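Raw, unnormalised count of remaining cells in each well; per-plate z-scores of cell number underlie the calls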
Direction: Kc cell number and S2R+ cell number: higher = more cells remaining
Call rule: 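Counted as a hit if cell number falls by a z-score of at least 3 within its plate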

| gene | DRSC id | Kc cell number, rep 1 | Kc cell number, rep 2 | S2R+ cell number, rep 1 | S2R+ cell number, rep 2 |
| --- | --- | --- | --- | --- | --- |
| sturkopf | DRSC08637 | 1.35e6 | 1.42e6 | 1.19e6 | 1.15e6 |
| CG1503 | DRSC20512 | 1.44e6 | 1.47e6 | 9.76e5 | 1.15e6 |
| CG14929 + CG4970 | DRSC02411 | 1.72e6 | 1.68e6 | 1.24e6 | 1.49e6 |
| CG14929 + CG4970 | DRSC02796 | 1.72e6 | 1.74e6 | 1.26e6 | 1.46e6 |
| CG10481 | DRSC02063 | 1.60e6 | 1.64e6 | 1.24e6 | 2.60e5 |
| CG18273 | DRSC18150 | 1.54e6 | 1.55e6 | 1.00e6 | 1.12e6 |
| CG18273 | DRSC18505 | 5.48e5 | – | 8.37e5 | – |
| mei-P22 (meiotic P22) | DRSC11366 | 1.57e6 | 1.44e6 | 1.05e6 | 1.14e6 |
| CG42493 | DRSC05309 | 1.23e6 | 1.21e6 | 9.58e5 | 1.10e6 |
| Nt5b (5' nucleotidase B) | DRSC19976 | 1.72e6 | 1.69e6 | 1.13e6 | 1.28e6 |
| Nt5b (5' nucleotidase B) | DRSC19977 | 1.61e6 | 1.62e6 | 1.09e6 | 1.27e6 |
| Nt5b (5' nucleotidase B) | DRSC19978 | 1.71e6 | 1.75e6 | 1.16e6 | 1.25e6 |
| Snp (Snipper) | DRSC04524 | 1.64e6 | 1.70e6 | 1.26e6 | 4.25e5 |
| S-Lap5 (Sperm-Leucylaminopeptidase 5) | DRSC06732 | 1.52e6 | 1.51e6 | 1.21e6 | 1.38e6 |
| CG15141 | DRSC02441 | 1.38e6 | 1.48e6 | 1.28e6 | 1.36e6 |
| CG15141 | DRSC02442 | 1.47e6 | 1.55e6 | 1.23e6 | 1.37e6 |
| CG17068 | DRSC20545 | 1.48e6 | 1.55e6 | 1.03e6 | 1.22e6 |
| CG31036 | DRSC15055 | 1.52e6 | 1.55e6 | 1.02e6 | 1.04e6 |
| CG31036 | DRSC15057 | 1.44e6 | 1.44e6 | 1.08e6 | 1.10e6 |
| Tsp42Ee (Tetraspanin 42Ee) | DRSC05947 | 1.61e6 | 1.77e6 | 1.24e6 | 1.37e6 |
| Crk (Crk oncogene) | DRSC17163 | 5.53e5 | – | 8.34e5 | – |
| CG42254 (retired record) | DRSC06194 | 1.49e6 | 1.47e6 | 1.19e6 | 1.30e6 |
| CG17272 | DRSC15211 | 1.49e6 | 1.52e6 | 1.16e6 | 1.26e6 |
| e(r) (enhancer of rudimentary) | DRSC18768 | 5.95e5 | – | 8.60e5 | – |
